Where “and” joins values, the source holds several entries; their conditions need not be identical. Identical values can stand only once. The campaign covered roughly 300,000 compounds. About 5,400 (1.8%) were called active. The inconclusive results got no clear call from the source; some entries with a clear call stand among them for comparison. Calls come from the whole dose curve; tested in HEK293 cells. Potencies beside an inconclusive call are fits to weak or partial responses and may not hold up. The source holds several records for some structures; these can differ, active in one and inactive in another.
Test: qHTS for inhibitors of binding or entry into cells for Marburg Virus
Conditions: Marburg virus pseudotyped entry inhibition, cell reporter; series mostly up to 37.8 µM
Potency is the fitted concentration of half-maximal effect.

Question: For `CSc1ccc(CN(C)C(=O)c2cc3ccccc3o2)cc1`, which Potency is on record?
Answer: inactive

Question: Which Potency does the source give for `Cc1ccc(-c2nnc3sc(-c4ccncc4)nn23)cc1` here?
Answer: active: 5.8 µM

Question: Which Potency does the source give for `CCOP(=O)(OCC)C(NC(=O)Cc1ccccc1)C(Cl)(Cl)Cl` (stereo not drawn) here?
Answer: inconclusive: 5.62 µM [inhibitor, single point]

Question: Which Potency does the source give for `CCOc1ccc(OCC)c(S(=O)(=O)n2ccnc2C)c1` here?
Answer: inconclusive: 5.62 µM [activator, single point]

Question: For `CC1=C(C(=O)Nc2ccc(C)cc2C)C(c2ccccc2)n2ncc(C(=O)Nc3ccccc3)c2N1` (stereo not drawn), which Potency is on record?
Answer: inconclusive: 10 µM [inhibitor, partial curve]

Question: For `Cc1c(CN2CCC(C)CC2)c(=O)n(-c2ccccc2)n1C`, which Potency is on record?
Answer: inconclusive: 0.92 µM [activator, full curve, poor fit]

Question: For `Cc1c(O)ccc(-c2[nH]ncc2-c2nc3ccccc3s2)c1O`, which Potency is on record?
Answer: inconclusive: 3.98 µM [inhibitor, partial curve, poor fit]

Question: Which Potency does the source give for `CCN(CC)C(=O)N[C@@H]1C[C@@H]2c3cccc4[nH]cc(c34)C[C@H]2N(C)C1` here?
Answer: inconclusive: 28.2 µM [inhibitor, single point]

Question: With `Clc1ccc(N=C2SCC3CCCCN23)cc1` (stereo not drawn) as the molecule, how does the Potency read?
Answer: inactive

Question: For `CCOc1ccccc1C1CC(=O)Oc2c1c(=O)n(C)c1ccccc21` (stereo not drawn), which Potency is on record?
Answer: inconclusive: 2.51 µM [inhibitor, partial curve, poor fit]

Question: For `O=S(=O)(c1ccc(NC(=S)NC2CCCC2)cc1)N1CCCC1`, which Potency is on record?
Answer: inconclusive: 35.5 µM [inhibitor, single point]

Question: Which Potency does the source give for `Cc1ccc(-c2cc(C(=O)NCCN3CCOCC3)c3ccccc3n2)o1` here?
Answer: inactive

Question: With `CCCCCCCCSc1nnc(CSc2nc3nc(C)cc(C)n3n2)o1` as the molecule, how does the Potency read?
Answer: inconclusive: 1.12 µM [activator, single point]

Question: For `COC(=O)N[C@@H](CCc1ccccc1)[C@]1(C(C)=O)CCCC1=O`, which Potency is on record?
Answer: inactive

Question: Which Potency does the source give for `CC(C)CNC(=O)CC(=O)NN=C1CCCC1` here?
Answer: inconclusive: 2 µM [activator, single point]

Question: For `Cc1nc(C(F)(F)F)ccc1C(=O)Nc1ccc2ccccc2n1`, which Potency is on record?
Answer: inactive

Question: With `COC(=O)c1c(NC(C)=O)sc(C(=O)Nc2ccccc2OC)c1C` as the molecule, how does the Potency read?
Answer: inconclusive: 35.5 µM [inhibitor, single point]

Question: For `Fc1ccc(-c2cn3cc(Cc4ccc(Cl)cc4)sc3n2)cc1`, which Potency is on record?
Answer: inconclusive: 10 µM [activator, partial curve]

Question: For `N#CC1=C(N)N(c2ccccc2)C(c2cccc([N+](=O)[O-])c2)C1(C#N)C#N` (stereo not drawn), which Potency is on record?
Answer: inactive

Question: Which Potency does the source give for `CCCSc1nc(C)c(CC(=O)O)c(=O)[nH]1` here?
Answer: inactive

Question: Which Potency does the source give for `CCC(CC)C(=O)Nc1cccc(-c2nc3ccccc3s2)c1` here?
Answer: inconclusive: 35.5 µM [inhibitor, single point]

Question: Which Potency does the source give for `CCNC(=O)N1CCNC(=O)C1CC(=O)OC` (stereo not drawn) here?
Answer: inconclusive: 6.51 µM [inhibitor, single point]

Question: With `CCCc1nnc(NC(=O)c2cc3ccccc3o2)s1` as the molecule, how does the Potency read?
Answer: inconclusive: 1.12 µM [activator, full curve, poor fit]

Question: With `Cc1cc(C)[n+]2n1C(=O)C(c1ccccc1)=C2[O-]` as the molecule, how does the Potency read?
Answer: inconclusive: 7.31 µM [activator, partial curve, poor fit] and inconclusive: 7.94 µM [activator, partial curve, poor fit]

Question: Which Potency does the source give for `CC1CN(S(=O)(=O)c2cccc(C(=O)N(Cc3nnc(-c4ccccc4Cl)o3)C3CC3)c2)CC(C)O1` (stereo not drawn) here?
Answer: inconclusive: 14.1 µM [inhibitor, single point]

Question: With `CCOCc1cc(CN2CCN(c3cccc(Cl)c3)CC2)c(O)c2ncccc12` as the molecule, how does the Potency read?
Answer: inconclusive: 15.8 µM [inhibitor, single point]

Question: For `CCOc1ccc(OCC)c(S(=O)(=O)NCCOC23CC4CC(CC(C4)C2)C3)c1`, which Potency is on record?
Answer: inconclusive: 17.8 µM [inhibitor, single point]

Question: With `CC(C)(C)C1CCc2c(sc3nc(SCC(=O)O)nc(N)c23)C1` (stereo not drawn) as the molecule, how does the Potency read?
Answer: inactive

Question: For `O=C(Nc1c2c(nn1-c1ccccc1)CS(=O)C2)c1ccco1` (stereo not drawn), which Potency is on record?
Answer: inconclusive: 28.2 µM [activator, single point]

Question: For `Nc1ccc(CCc2nc3ccccc3o2)cc1`, which Potency is on record?
Answer: inconclusive: 1.64 µM [activator, partial curve, poor fit]

Question: Which Potency does the source give for `C=Cc1c(C)c2cc3[nH]c(cc4nc(cc5nc(cc1[nH]2)C(C)=C5CCC(=O)O)C(CCC(=O)O)=C4C)c(C)c3C=C` here?
Answer: inactive and active: 7.94 µM

Question: Which Potency does the source give for `O=C(c1ccc(C(F)(F)F)cc1)C1CCCN(C2CCSCC2)C1` (stereo not drawn) here?
Answer: inconclusive: 12.6 µM [inhibitor, single point]

Question: With `CC(C)(C)c1ccc(C(=O)N2CCCN(C(=O)c3ccc(C(C)(C)C)cc3)CC2)cc1` as the molecule, how does the Potency read?
Answer: inactive

Question: With `O=C(Cn1cc([N+](=O)[O-])cn1)NCCc1nc2ccccc2[nH]1` as the molecule, how does the Potency read?
Answer: inactive

Question: For `C=CCc1cccc(/C=N/NC(=O)c2ccccc2OC)c1O`, which Potency is on record?
Answer: inconclusive: 20.6 µM [inhibitor, single point]

Question: Which Potency does the source give for `O=C1OCC2=C1C(c1ccc(F)cc1)c1cc3c(cc1N2)OCCO3` (stereo not drawn) here?
Answer: inactive

Question: For `CCCCn1c(N)c(N(CCC(C)C)C(=O)CC2CCCC2)c(=O)[nH]c1=O`, which Potency is on record?
Answer: inactive

Question: For `Cc1cccc(N2CCN(C(=O)CCn3c(=O)[nH]c4ccccc4c3=O)CC2)c1C`, which Potency is on record?
Answer: inconclusive: 29.1 µM [inhibitor, single point]

Question: Which Potency does the source give for `Oc1ccccc1C=NC(c1ccccc1)C(O)c1ccccc1` (stereo not drawn) here?
Answer: inconclusive: 7.08 µM [activator, full curve, poor fit]

Question: For `CN1CCN(C(CNC(=O)c2ccc(Br)o2)c2ccc(F)cc2)CC1` (stereo not drawn), which Potency is on record?
Answer: inconclusive: 35.5 µM [inhibitor, single point]

Question: Which Potency does the source give for `COc1ccc(C(=O)CCNc2cccc(Cl)c2)cc1` here?
Answer: inconclusive: 5.62 µM [activator, single point]

Question: For `CCOc1cc(C(C(=O)NCC2CCCO2)N(C(=O)Cn2nnc3ccccc32)c2ccc(C(C)=O)cc2)ccc1O` (stereo not drawn), which Potency is on record?
Answer: inconclusive: 14.1 µM [inhibitor, single point]

Question: Which Potency does the source give for `Cc1noc(C)c1S(=O)(=O)N1CCC(C(=O)NCCC2=CCCCC2)CC1` here?
Answer: inconclusive: 35.5 µM [inhibitor, single point]

Source: PubChem BioAssay AID540276 (National Center for Advancing Translational Sciences (NCATS), 2011)
